The structures appear in SMILES notation. Counter-ions that a name gives are not always drawn. Some of the results follow. Many values rest on one well or one pass, so single values are uncertain.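 The strains were three CDC resistance-bank clinical C. auris isolates from clades III, IV and I, cultured in RPMI-1640 at 35°C. Growth was background-corrected OD600 versus vehicle-only wells on the same plate. A hit needed >50% inhibition in two or more strains plus a plate-corrected B-score exceeding 0.1.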

Some test systems named below: C. auris AR-384; C. auris AR-386; C. auris AR-387.
Common to all, as to experiment: growth relative to vehicle control (OD600 ratio) (fraction); higher = less inhibition
What all share (conditions): 24 h

Regarding `OC(CCCN1CCCCC1)(c1ccccc1)c1ccccc1` [Diphenidol HCl], the growth amounted to 0.97 in the test with C. auris AR-384 (1 µM); 0.87 in the test with C. auris AR-384 (10 µM); 0.79 in the test on C. auris AR-386 (1 µM); 1.01 in the test on C. auris AR-386 (10 µM); 0.67 in the test with C. auris AR-387 (1 µM); 1.05 with C. auris AR-387 (10 µM).

As to `CN1C[C@@H]2C[C@H]1CN2c1cc2c(cc1F)c(=O)c(C(=O)O)cn2C1CC1` [Danofloxacin Mesylate], the growth is 0.82 with C. auris AR-384 (1 µM); 0.71 in the test on C. auris AR-384 (10 µM); 0.89 with C. auris AR-386 (1 µM); 0.67 with C. auris AR-386 (10 µM); 1.1 with C. auris AR-387 (1 µM); 1.07 in the test with C. auris AR-387 (10 µM).

`CCS(=O)(=O)N1CCN(c2ccc(Nc3ncc(C(N)=O)c(NC4CC4)n3)cc2)CC1`: the growth was 0.89 with C. auris AR-384 (1 µM); 0.89 with C. auris AR-384 (10 µM); 0.9 in the test with C. auris AR-386 (1 µM); 0.95 in the test on C. auris AR-386 (10 µM); 0.61 in the test with C. auris AR-387 (1 µM); 0.87 in the test on C. auris AR-387 (10 µM).

Consider `COC(=O)N[C@H](C(=O)N[C@@H](Cc1ccccc1)[C@@H](O)CN(Cc1ccc(-c2ccccn2)cc1)NC(=O)[C@@H](NC(=O)OC)C(C)(C)C)C(C)(C)C` [Atazanavir Sulfate], for which the growth turned out to be 0.55 in the test on C. auris AR-384 (1 µM); 0.58 in the test with C. auris AR-384 (10 µM); 0.53 in the test with C. auris AR-386 (1 µM); 0.86 in the test on C. auris AR-386 (10 µM); 0.67 in the test on C. auris AR-387 (1 µM); 0.67 in the test on C. auris AR-387 (10 µM).

For `Cc1ccc(N(CC2=NCCN2)c2cccc(O)c2)cc1` [Phentolamine Mesylate], the growth in the test on C. auris AR-384 (1 µM) was found to be 0.91; in the test with C. auris AR-384 (10 µM), 0.79; in the test on C. auris AR-386 (1 µM), 0.95; in the test with C. auris AR-386 (10 µM), 0.87; in the test with C. auris AR-387 (1 µM), 1.08; in the test on C. auris AR-387 (10 µM), 1.

For the compound `COc1ccc(CN(CCN(C)C)c2ccccn2)cc1` [Pyrilamine Maleate], the growth in the test with C. auris AR-384 (1 µM) came to 1.05; in the test on C. auris AR-384 (10 µM), 0.81; in the test with C. auris AR-386 (1 µM) it was 0.86; in the test on C. auris AR-386 (10 µM) it was 0.88; with C. auris AR-387 (1 µM), 0.96; in the test with C. auris AR-387 (10 µM), 1.21.

Turning to `Cc1cn[nH]c1` [Fomepizole], the growth with C. auris AR-384 (1 µM) came out at 1.01; with C. auris AR-384 (10 µM) it was 1.19; in the test on C. auris AR-386 (1 µM) it was 1.09; in the test on C. auris AR-386 (10 µM) it was 1.21; in the test with C. auris AR-387 (1 µM) it was 0.97; in the test on C. auris AR-387 (10 µM) it was 0.91.

Consider `COc1ccccc1Oc1c(NS(=O)(=O)c2ccc(C(C)(C)C)cc2)nc(-c2ncccn2)nc1OCCO` [Bosentan Hydrate], for which the growth in the test with C. auris AR-384 (1 µM) was found to be 1.01; in the test with C. auris AR-384 (10 µM) it was 0.75; in the test with C. auris AR-386 (1 µM), 0.83; with C. auris AR-386 (10 µM), 0.6; in the test with C. auris AR-387 (1 µM), 0.58; with C. auris AR-387 (10 µM), 0.71.

In the case of `CNC[C@@H](O)c1ccc(O)c(O)c1` [L-Adrenaline], the growth in the test with C. auris AR-384 (1 µM) was found to be 0.68; in the test on C. auris AR-384 (10 µM), 0.72; in the test on C. auris AR-386 (1 µM) it was 0.63; in the test with C. auris AR-386 (10 µM), 0.69; in the test on C. auris AR-387 (1 µM) it was 0.72; with C. auris AR-387 (10 µM), 0.8.

As for `NS(=O)(=O)Cc1noc2ccccc12` [Zonisamide], the growth amounted to 1.1 in the test on C. auris AR-384 (1 µM); 0.7 in the test with C. auris AR-384 (10 µM); 0.72 with C. auris AR-386 (1 µM); 0.73 in the test on C. auris AR-386 (10 µM); 1.07 with C. auris AR-387 (1 µM); 0.82 in the test with C. auris AR-387 (10 µM).

On to `N=C(N)NC(=O)c1nc(Cl)c(N)nc1N` [Amiloride HCl], for which the growth in the test with C. auris AR-384 (1 µM) is 0.85; in the test with C. auris AR-384 (10 µM), 0.72; in the test on C. auris AR-386 (1 µM) it was 0.55; in the test with C. auris AR-386 (10 µM), 0.54; in the test with C. auris AR-387 (1 µM), 0.63; with C. auris AR-387 (10 µM) it was 1.21.

For `N#CC[C@H](C1CCCC1)n1cc(-c2ncnc3[nH]ccc23)cn1`, the growth was found to be 1.09 in the test on C. auris AR-384 (1 µM); 0.88 with C. auris AR-384 (10 µM); 0.77 with C. auris AR-386 (1 µM); 1.08 in the test on C. auris AR-386 (10 µM); 0.91 with C. auris AR-387 (1 µM); 0.95 with C. auris AR-387 (10 µM).

With `CC1(C)[C@@H](O)CC[C@]2(C)[C@H]3C(=O)C=C4[C@@H]5C[C@@](C)(C(=O)O)CC[C@]5(C)CC[C@@]4(C)[C@]3(C)CC[C@@H]12` [Enoxolone], the growth in the test with C. auris AR-384 (1 µM) stood at 0.81; in the test on C. auris AR-384 (10 µM), 0.95; in the test on C. auris AR-386 (1 µM), 1.05; in the test on C. auris AR-386 (10 µM) it was 1; in the test with C. auris AR-387 (1 µM) it was 0.99; in the test on C. auris AR-387 (10 µM), 0.93.

With `COC1=CC(=O)C[C@@H](C)[C@]12Oc1c(Cl)c(OC)cc(OC)c1C2=O` [Griseofulvin], the growth in the test with C. auris AR-384 (1 µM) stood at 0.86; in the test on C. auris AR-384 (10 µM), 1.01; in the test with C. auris AR-386 (1 µM), 1.22; with C. auris AR-386 (10 µM), 1.29; in the test with C. auris AR-387 (1 µM), 1.21; with C. auris AR-387 (10 µM), 1.09.

For the compound `C#C[C@]1(O)CC[C@H]2[C@@H]3CCC4=CC(=O)CC[C@@H]4[C@H]3CC[C@@]21C` [Norethindrone], the growth in the test on C. auris AR-384 (1 µM) is 0.89; in the test with C. auris AR-384 (10 µM), 0.85; with C. auris AR-386 (1 µM) it was 0.67; with C. auris AR-386 (10 µM), 0.78; with C. auris AR-387 (1 µM) it was 0.77; in the test on C. auris AR-387 (10 µM) it was 0.94.

`C[C@@H](c1ncncc1F)[C@](O)(Cn1cncn1)c1ccc(F)cc1F` [Voriconazole]: the growth with C. auris AR-384 (1 µM) was found to be 0.36; in the test with C. auris AR-384 (10 µM), 0.29; with C. auris AR-386 (1 µM), 0.62; with C. auris AR-386 (10 µM) it was 0.45; in the test with C. auris AR-387 (1 µM) it was 0.04; in the test on C. auris AR-387 (10 µM) it was 0.02.

On to `CC(=O)[C@@]1(O)CC[C@H]2[C@@H]3CCC4=CC(=O)CCC4=C3[C@@H](c3ccc(N(C)C)cc3)C[C@@]21C` [Ulipristal], for which the growth in the test with C. auris AR-384 (1 µM) worked out at 0.9; with C. auris AR-384 (10 µM) it was 1.05; in the test on C. auris AR-386 (1 µM), 0.66; in the test with C. auris AR-386 (10 µM), 0.98; in the test with C. auris AR-387 (1 µM) it was 0.98; in the test on C. auris AR-387 (10 µM), 0.89.

Take `CNC(=O)c1ccc(N2C(=S)N(c3ccc(C#N)c(C(F)(F)F)c3)C(=O)C2(C)C)cc1F` [Enzalutamide (MDV3100)]: the growth is 0.95 in the test with C. auris AR-384 (1 µM); 0.44 with C. auris AR-384 (10 µM); 0.53 in the test on C. auris AR-386 (1 µM); 0.59 with C. auris AR-386 (10 µM); 0.83 in the test with C. auris AR-387 (1 µM); 0.71 in the test with C. auris AR-387 (10 µM).

`C[N+](C)(C)C[C@H](O)CC(=O)[O-]` [L-carnitine]: the growth in the test with C. auris AR-384 (1 µM) worked out at 0.93; in the test on C. auris AR-384 (10 µM), 0.99; with C. auris AR-386 (1 µM), 0.91; with C. auris AR-386 (10 µM) it was 0.67; with C. auris AR-387 (1 µM), 0.63; in the test with C. auris AR-387 (10 µM) it was 0.79.

In the case of `C=C1/C(=C\C=C2/CCC[C@]3(C)[C@@H]([C@H](C)/C=C/[C@H](C)C(C)C)CC[C@@H]23)C[C@@H](O)C[C@@H]1O` [Doxercalciferol], the growth in the test on C. auris AR-384 (1 µM) was 1.12; with C. auris AR-384 (10 µM), 1.13; in the test on C. auris AR-386 (1 µM), 0.72; in the test with C. auris AR-386 (10 µM), 1.04; in the test on C. auris AR-387 (1 µM), 0.82; in the test with C. auris AR-387 (10 µM), 1.26.

Take `OCCN1CCN(CCCN2c3ccccc3Sc3ccc(C(F)(F)F)cc32)CC1` [Fluphenazine dihydrochloride]: the growth with C. auris AR-384 (1 µM) was determined as 0.99; in the test on C. auris AR-384 (10 µM), 0.92; with C. auris AR-386 (1 µM) it was 0.78; in the test with C. auris AR-386 (10 µM), 0.87; with C. auris AR-387 (1 µM), 0.77; with C. auris AR-387 (10 µM), 0.9.

The values are drawn from the supplement of paper PMC10470496.
